The record followed here is patent publication US7517855B2 (Attenuon, LLC, priority 2002, dated 2009).

Non-standard residues stand in square brackets, D forms with d. *: point of attachment. Biotin = O=C1N[C@H]2[C@H](CS[C@H]2CCCCC(=O)*)N1; Met(O2) = CS(=O)(=O)CC[C@H](N)C(=O)O; Met(O) = CS(=O)CC[C@H](N)C(=O)O; Nicotinoyl = O=C(c1cccnc1)*; tBu = CC(C)(C)*

A short description of data set [1]: general procedure: Fmoc solid-phase peptide synthesis; Rink Amide AM resin (Novabiochem); HBTU/HOBt/NMM. To be noted: for isolated yield: whole synthesis; for step yield: late stage modification step.
Data set [2] can be described thus: general procedure: Fmoc solid-phase peptide synthesis; Fmoc-Asn-AM resin; HBTU/HOBt/NMM. To be noted: whole synthesis, scale 200 mg resin, 0.41 mmol/g.
In data set [3] the test system is CD31 positive neo-vessels within the tumor. To be noted: 50 μg via tail vein, 3LL cells in Matrigel, mice.

Consider Acetyl-Pro-His-Ser-Cys(benzyl)-Asn-NH2, for which the isolated yield in data set [1] was found to be 97%. The substance “Acetyl-Pro-His-Ser-Cys(4-methyl-benzyl)-Asn-NH2” had an isolated yield in data set [1] of 99%. Ac-Pro-His-Ser-HoCys(SO2Ph)-Asn-NH2 gave a step yield in data set [1] of 31.6%. Turning to Ac-PHS[Met(O2)]N-NH2, the isolated yield in data set [1] is 88%. As to Ac-PHS[Met(O)]N-NH2, the isolated yield in data set [1] is recorded as 29%. Take Ac-PHSC(tBu)N-NH2: the isolated yield in data set [1] was determined as 23%. As to Acetyl-Pro-His-Ser-Cys(methyl)-NH2, the isolated yield in data set [1] is given as 43%. Substance Ac-Pro-His-Ser-HoCys(SOBn)-Asn-NH2 gave a step yield in data set [1] of 35.2%. As for Ac-His-His-Cys(SMe)-Asn-NH2, in data set [2], the isolated mass is 23 mg and the isolated yield amounted to 49.7%. In data set [2], Ac-His-Ser-Cys(SMe)-Asn-NH2 yielded an isolated mass of 14.1 mg and an isolated yield of 33.4%. On to Ac-PFSCNGGK(Biotin)-NH2, for which, in data set [3] (four hours after injection), the “persistence of association with tumor endothelium” value was “remains associated to tumor endothelium four hours after injection”. For the same substance, the “localization of peptide in tumor (anti-biotin / anti-CD31 staining)” value in data set [3] (two hours after injection) was “localized to CD31 positive neo-vessels within the tumor and not with other cells”.

Regarding Ac-PHSC(Nicotinoyl)N-NH2, the step yield in data set [1] is listed as 42.0%.

In data set [1], “Acetyl-Pro-His-Ser-Cys(4-MeO-Phenyl)-Asn-NH2” came in with an isolated yield of 50%. Ac-Pro-His-Ser-Cys(SO2Bn)-Asn-NH2 gave a step yield in data set [1] of 68%.
